The chains behind the UniProt entries cited, without tags or fusion partners. Where a name states a change or a piece, a line headed by the entry shows the natural chain unless it says otherwise.
UniProt Q9Z207: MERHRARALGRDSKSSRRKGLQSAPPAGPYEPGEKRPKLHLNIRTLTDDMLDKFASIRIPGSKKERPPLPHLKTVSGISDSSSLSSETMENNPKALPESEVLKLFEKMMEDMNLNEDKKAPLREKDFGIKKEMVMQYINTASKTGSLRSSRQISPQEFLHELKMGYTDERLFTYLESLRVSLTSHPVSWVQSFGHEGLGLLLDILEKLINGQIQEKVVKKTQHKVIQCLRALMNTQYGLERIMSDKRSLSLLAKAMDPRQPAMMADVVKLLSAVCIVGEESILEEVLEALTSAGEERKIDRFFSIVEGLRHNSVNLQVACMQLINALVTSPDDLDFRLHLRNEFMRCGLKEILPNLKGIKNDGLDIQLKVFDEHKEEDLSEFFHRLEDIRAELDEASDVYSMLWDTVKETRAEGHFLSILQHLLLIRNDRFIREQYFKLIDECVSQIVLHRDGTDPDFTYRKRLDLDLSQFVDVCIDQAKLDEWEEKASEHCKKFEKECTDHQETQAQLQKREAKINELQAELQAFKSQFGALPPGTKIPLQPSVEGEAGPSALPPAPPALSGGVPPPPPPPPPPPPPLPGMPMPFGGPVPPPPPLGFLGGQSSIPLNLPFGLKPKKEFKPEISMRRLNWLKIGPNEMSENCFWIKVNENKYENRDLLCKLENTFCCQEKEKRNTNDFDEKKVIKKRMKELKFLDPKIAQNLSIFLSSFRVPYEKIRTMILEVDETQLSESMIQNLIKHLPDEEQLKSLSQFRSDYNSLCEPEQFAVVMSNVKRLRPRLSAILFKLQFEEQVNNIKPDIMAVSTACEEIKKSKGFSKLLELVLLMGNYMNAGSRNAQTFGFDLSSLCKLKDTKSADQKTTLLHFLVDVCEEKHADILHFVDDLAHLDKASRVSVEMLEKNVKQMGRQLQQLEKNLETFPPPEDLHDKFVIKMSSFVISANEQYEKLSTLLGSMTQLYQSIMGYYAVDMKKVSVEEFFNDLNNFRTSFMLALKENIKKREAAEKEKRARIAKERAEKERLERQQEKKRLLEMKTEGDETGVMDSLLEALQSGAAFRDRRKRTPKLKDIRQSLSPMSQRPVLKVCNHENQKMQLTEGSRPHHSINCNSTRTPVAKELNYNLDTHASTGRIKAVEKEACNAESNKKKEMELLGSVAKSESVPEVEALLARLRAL
UniProt Q9UNE7: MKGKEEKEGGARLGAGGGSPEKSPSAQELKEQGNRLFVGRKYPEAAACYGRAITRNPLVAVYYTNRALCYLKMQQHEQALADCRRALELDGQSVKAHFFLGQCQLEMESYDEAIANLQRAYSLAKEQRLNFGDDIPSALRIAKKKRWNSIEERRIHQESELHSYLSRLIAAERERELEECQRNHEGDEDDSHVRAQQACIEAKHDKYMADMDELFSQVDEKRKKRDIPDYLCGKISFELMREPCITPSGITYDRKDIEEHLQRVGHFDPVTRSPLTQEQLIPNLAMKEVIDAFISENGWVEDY
UniProt P63208: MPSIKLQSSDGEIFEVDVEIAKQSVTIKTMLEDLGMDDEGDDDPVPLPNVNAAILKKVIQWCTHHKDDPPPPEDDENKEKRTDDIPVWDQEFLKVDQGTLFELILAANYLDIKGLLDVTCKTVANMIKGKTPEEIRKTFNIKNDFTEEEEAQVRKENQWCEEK
UniProt Q9UJX5: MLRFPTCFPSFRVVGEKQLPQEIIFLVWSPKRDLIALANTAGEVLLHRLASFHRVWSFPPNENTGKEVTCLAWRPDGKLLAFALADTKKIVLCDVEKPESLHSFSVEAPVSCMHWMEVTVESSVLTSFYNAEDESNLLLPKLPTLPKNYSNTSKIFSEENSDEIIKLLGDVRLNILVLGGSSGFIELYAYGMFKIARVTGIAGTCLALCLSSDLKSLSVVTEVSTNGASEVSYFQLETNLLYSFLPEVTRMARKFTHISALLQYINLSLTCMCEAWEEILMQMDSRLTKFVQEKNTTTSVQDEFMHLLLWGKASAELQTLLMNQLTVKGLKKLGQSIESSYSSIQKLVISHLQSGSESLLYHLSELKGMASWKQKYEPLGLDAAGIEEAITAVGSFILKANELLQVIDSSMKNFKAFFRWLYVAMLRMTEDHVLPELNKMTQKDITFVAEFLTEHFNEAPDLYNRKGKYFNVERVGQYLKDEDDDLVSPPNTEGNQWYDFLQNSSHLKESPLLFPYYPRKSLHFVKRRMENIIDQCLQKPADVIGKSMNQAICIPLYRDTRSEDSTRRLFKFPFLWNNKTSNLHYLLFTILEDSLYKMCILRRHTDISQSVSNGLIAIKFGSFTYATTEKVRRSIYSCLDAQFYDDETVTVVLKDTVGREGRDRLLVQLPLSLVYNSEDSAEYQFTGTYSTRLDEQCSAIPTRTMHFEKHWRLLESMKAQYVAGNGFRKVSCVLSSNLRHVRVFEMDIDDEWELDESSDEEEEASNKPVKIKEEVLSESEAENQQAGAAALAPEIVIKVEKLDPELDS

In article PMC11736009:

molecular target: full-length Diaph3-M1041A-Flag (mouse) (UniProt Q9Z207); experiment: affinity purification with mass spectrometry; Diaph3-M1041A-Flag overexpressed in HEK293T, 48 h, MG132 for 6 h; immunoprecipitation with Flag antibodies, SDS-PAGE, in-gel trypsin digest, LC-MS/MS; search against UniProt Homo sapiens

Row | binding | Substance
1 | binds | Stub1 (endogenous, found by mass spectrometry) (from UniProt Q9UNE7 1-303) (enzyme)
2 | binds | Skp1 (endogenous, found by mass spectrometry) (from UniProt P63208 1-163)
3 | binds | Anapc4 (endogenous, found by mass spectrometry) (from UniProt Q9UJX5 1-808)

No constants are given. Whether binding was seen depends on the method and setting. In cells and extracts the contact can be indirect. These calls come from enrichment with a bait or labelling near it, and not all partners need be listed.
